These results are taken from article PMC3682905.

Results are given in words; binding and its absence hold for the method and conditions named. In cells and extracts the contact can be indirect.

This experiment addresses KAP1/TRIM28/TIF1-β (mouse (endogenous in mESCs)), Q62318. The experiment is described as follows: co-IP; 200 μg nuclear extract diluted to approximately 170 mM KCl; IP overnight at 4°C with mouse monoclonal anti-KAP1, anti-G9a or mouse IgG; protein G-Dynabeads; washes in 20 mM HEPES pH 7.9, 200 mM KCl, 1% NP-40, 10% glycerol; Western blot. Particulars: remark: other sources report otherwise. (A western blot detects proteins with antibodies after separation by electrophoresis.)

B1: G9a, Q9Z148 1-1263 (protein)
chain: MRGLPRGRGLMRARGRGRAAPTGGRGRGRGGAHRGRGRPRSLLSLPRAQASWAPQLPAGLTGPPVPCLPSQGEAPAEMGALLLEKEPRGAAERVHSSLGDTPQSEETLPKANPDSLEPAGPSSPASVTVTVGDEGADTPVGAASLIGDEPESLEGDGGRIVLGHATKSFPSSPSKGGACPSRAKMSMTGAGKSPPSVQSLAMRLLSMPGAQGAATAGPEPSPATTAAQEGQPKVHRARKTMSKPSNGQPPIPEKRPPEVQHFRMSDDMHLGKVTSDVAKRRKLNSGSLSEDLGSAGGSGDIILEKGEPRPLEEWETVVGDDFSLYYDAYSVDERVDSDSKSEVEALAEQLSEEEEEEEEEEEEEEEEEEEEEEEEEDEESGNQSDRSGSSGRRKAKKKWRKDSPWVKPSRKRRKREPPRAKEPRGVNGVGSSGPSEYMEVPLGSLELPSEGTLSPNHAGVSNDTSSLETERGFEELPLCSCRMEAPKIDRISERAGHKCMATESVDGELLGCNAAILKRETMRPSSRVALMVLCEAHRARMVKHHCCPGCGYFCTAGTFLECHPDFRVAHRFHKACVSQLNGMVFCPHCGEDASEAQEVTIPRGDGGTPPIGTAAPALPPLAHDAPGRADTSQPSARMRGHGEPRRPPCDPLADTIDSSGPSLTLPNGGCLSAVGLPPGPGREALEKALVIQESERRKKLRFHPRQLYLSVKQGELQKVILMLLDNLDPNFQSDQQSKRTPLHAAAQKGSVEICHVLLQAGANINAVDKQQRTPLMEAVVNNHLEVARYMVQLGGCVYSKEEDGSTCLHHAAKIGNLEMVSLLLSTGQVDVNAQDSGGWTPIIWAAEHKHIDVIRMLLTRGADVTLTDNEENICLHWASFTGSAAIAEVLLNAQCDLHAVNYHGDTPLHIAARESYHDCVLLFLSRGANPELRNKEGDTAWDLTPERSDVWFALQLNRKLRLGVGNRAVRTEKIICRDVARGYENVPIPCVNGVDGEPCPEDYKYISENCETSTMNIDRNITHLQHCTCVDDCSSSNCLCGQLSIRCWYDKDGRLLQEFNKIEPPLIFECNQACSCWRSCKNRVVQSGIKVRLQLYRTAKMGWGVRALQTIPQGTFICEYVGELISDAEADVREDDSYLFDLDNKDGEVYCIDARYYGNISRFINHLCDPNIIPVRVFMLHQDLRFPRIAFFSSRDIRTGEELGFDYGDRFWDIKSKYFTCQCGSEKCKHSAEAIALEQSRLARLDPHPELLPDLSSLPPINT
For B1, the binding entry is reported as “no binding”.
